Results as given in patent US20230097293A1, “LMP1 TARGETING LANTHANIDE COMPLEXES AND METHODS OF USE THEREOF” (BP InnoMed Limited, priority 2021, published 2023).
Some entries share one result that the patent states for a list of compounds. At least one structure is not confirmed: it was looked up by name or label, or the drawing left a doubt. Some ranges recur; such a range may be that of the whole group of compounds. Where a SMILES comes first, the peptide text is derived from it. [ ]: non-standard residue; d: D form. dPra = C#CC[C@@H](N)C(=O)O; Ahx = NCCCCCC(=O)O

Experiments:
[1] = tested on: highly LMP1-positive (LCL3, AFB1, AG876) cells; experiment: MTT cytotoxicity assay, highly LMP1-positive cell lines; assay type: cell-based; conditions: read-out: LC50 (the source's name)
C666-1 cells = experiment: MTT cytotoxicity assay, C666-1; assay type: cell-based; conditions: read-out: LC50 (the source's name)

Work on `C#CC[C@@H](N)C(=O)N[C@@H](CCCCN)C(=O)NCCCCCC(=O)N[C@@H](CCCCN)C(=O)N[C@@H](CC(C)C)C(=O)N[C@@H](CC(=O)O)C(=O)N[C@@H](CC(C)C)C(=O)N[C@@H](C)C(=O)N[C@@H](CC(C)C)C(=O)N[C@@H](CCCCN)C(=O)N[C@@H](Cc1ccccc1)C(=O)N[C@@H](Cc1c[nH]c2ccccc12)C(=O)N[C@@H](CC(C)C)C(=O)N[C@@H](Cc1ccc(O)cc1)C(=O)N[C@@H](CCCCN)C(=O)N[C@H](C(=O)N[C@H](C(=O)N[C@@H](CCSC)C(=O)N[C@@H](CO)C(=O)N[C@@H](CC(=O)O)C(=O)N[C@@H](CCCCN)C(=O)N[C@@H](Cc1c[nH]c2ccccc12)C(=O)N[C@@H](CCCCN)C(=O)N[C@@H](CCCNC(=N)N)C(=O)N[C@H](CCCNC(=N)N)C(=O)N[C@@H](CCCNC(=N)N)C(=O)N[C@@H](CCCCN)C(=O)O)C(C)C)[C@@H](C)CC` [P19, Pra-KAhx-K-LDLALK-FWLY-K-IVMSDKW-K-RrRK] (H-[dPra]K[Ahx]KLDLALKFWLYKIVMSDKWKR[dR]RK-OH; N-terminus and C-terminus assumed) yielded a CC50 [1] of 10.3 to 36.9 µM and a CC50 (C666-1 cells) of over 100 µM.
